This is one part of the list. Repeats are few or missing, and single values can be far off.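 Imaging used 1,536-well plates; nuclei positive for cleaved PARP by antibody were divided by total DNA-stained nuclei to yield the apoptosis fraction. Doses for screening kept most cells viable, and cell lines differ markedly in resting and induced cleaved-PARP levels.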

The assay concerns WM451Lu. The assay is described as follows: cleaved PARP positive nuclei fraction relative to DMSO control; melanoma cells; higher = more apoptosis. The following applies: library dose: low library concentration; 72 h.
As for `NC1(c2ccc(-c3nc4ccn5c(=O)[nH]nc5c4cc3-c3ccccc3)cc2)CCC1` + O=C(Oc1ccc([N+](=O)[O-])cc1)N1CCC(C(O)(c2ccc3c(c2)OCO3)c2ccc3c(c2)OCO3)CC1 [JZL184] (first compound 0.4 µM, partner dose 1 µM), the “cleaved PARP positive nuclei fraction” value stood at 81.9%. As to `COc1ccc(C2=N[C@@H](c3ccc(Cl)cc3)[C@@H](c3ccc(Cl)cc3)N2C(=O)N2CCNC(=O)C2)c(OC(C)C)c1` [Nutlin-3] + C/C(O)=C(\C#N)C(=O)Nc1cc(Br)ccc1Br [LFM-A13] (first compound 0.1 µM, partner dose 2 µM), the “cleaved PARP positive nuclei fraction” value turned out to be 109%. With `O=C(/C=C/c1cccnc1)NCCCCC1CCN(C(=O)c2ccccc2)CC1` + Cc1cc(SCc2sc(-c3ccc(C(F)(F)F)c(F)c3)nc2C)ccc1OCC(=O)O [GW0742] (first compound 0.01 µM, partner dose 2 µM), the “cleaved PARP positive nuclei fraction” value was 44.5%. Turning to `C[As](C)SC[C@H](NC(=O)CC[C@H](N)C(=O)O)C(=O)NCC(=O)O` [Darinaparsin] + NC(=O)Nc1cc(-c2cccc(F)c2)sc1C(=O)N[C@H]1CCCNC1 [AZD7762] (first compound 0.4 µM, partner dose 0.02 µM), the “cleaved PARP positive nuclei fraction” value was 177%.

For `C[As](C)SC[C@H](NC(=O)CC[C@H](N)C(=O)O)C(=O)NCC(=O)O` [Darinaparsin] + C[C@@H]1CCN(C(=O)CC#N)C[C@@H]1N(C)c1ncnc2[nH]ccc12 [CP690550] (first compound 0.4 µM, partner dose 1 µM), the “cleaved PARP positive nuclei fraction” value amounted to 115%. As for `C[C@]1(O)C[C@@H](c2nc(-c3ccc4ccc(-c5ccccc5)nc4c3)c3c(N)nccn32)C1` + C/C(O)=C(\C#N)C(=O)Nc1cc(Br)ccc1Br [LFM-A13] (first compound 0.4 µM, partner dose 2 µM), the “cleaved PARP positive nuclei fraction” value was 70.5%. For `N.N.[Cl][Pt][Cl]` [cisplatin] + Cc1cc([N+](=O)[O-])ccc1NS(=O)(=O)c1cc(Cl)ccc1Cl [FH535] (first compound 1.6 µM, partner dose 1 µM), the “cleaved PARP positive nuclei fraction” value was found to be 39.6%. With `Cn1cc(C2=C(c3cn(C4CCN(Cc5ccccn5)CC4)c4ccccc34)C(=O)NC2=O)c2ccccc21` [Enzastaurin] + O=C1NC(=O)/C(=C/c2ccc(-c3ccc(F)cc3O)o2)S1 [AS252424] (first compound 0.8 µM, partner dose 1 µM), the “cleaved PARP positive nuclei fraction” value is 34.4%. In the case of `C=CCNC1=C2C[C@@H](C)C[C@H](OC)[C@H](O)[C@@H](C)/C=C(\C)[C@H](OC(N)=O)[C@@H](OC)/C=C\C=C(/C)C(=O)NC(=CC1=O)C2=O` [Tanespimycin] + Cc1cc(SCc2sc(-c3ccc(C(F)(F)F)c(F)c3)nc2C)ccc1OCC(=O)O [GW0742] (first compound 0.002 µM, partner dose 2 µM) it was 7.34%. On to `O=C(O)c1ccc2c(c1)nc(Nc1cccc(Cl)c1)c1ccncc12` + O=C(Oc1ccc([N+](=O)[O-])cc1)N1CCC(C(O)(c2ccc3c(c2)OCO3)c2ccc3c(c2)OCO3)CC1 [JZL184] (first compound 0.4 µM, partner dose 1 µM), for which the “cleaved PARP positive nuclei fraction” value was determined as 69.5%. Then `N.N.[Cl][Pt][Cl]` [cisplatin] + Cc1cc(N2CCOCC2)cc2[nH]c(-c3c(NC[C@@H](O)c4cccc(Cl)c4)cc[nH]c3=O)nc12 [BMS536924] (first compound 1.6 µM, partner dose 0.2 µM), with 57.5%; and `CC1(C)CCC(c2ccc(Cl)cc2)=C(CN2CCN(c3ccc(C(=O)NS(=O)(=O)c4ccc(N[C@H](CCN5CCOCC5)CSc5ccccc5)c(S(=O)(=O)C(F)(F)F)c4)cc3)CC2)C1` + O=C(Oc1ccc([N+](=O)[O-])cc1)N1CCC(C(O)(c2ccc3c(c2)OCO3)c2ccc3c(c2)OCO3)CC1 [JZL184] (first compound 0.4 µM, partner dose 1 µM), with 186%; and `Cc1cc(Nc2cc(N3CCN(C)CC3)nc(/C=C/c3ccccc3)n2)n[nH]1` + C/C(O)=C(\C#N)C(=O)Nc1cc(Br)ccc1Br [LFM-A13] (first compound 0.04 µM, partner dose 2 µM), with 160%. Then `N.N.[Cl][Pt][Cl]` [cisplatin] + OCCn1cc(-c2cnc3nnn(Cc4ccc5ncccc5c4)c3n2)cn1 [PF04217903] (first compound 1.6 µM, partner dose 1 µM), with 210%; and `Cn1cc(C2=C(c3cn(C4CCN(Cc5ccccn5)CC4)c4ccccc34)C(=O)NC2=O)c2ccccc21` [Enzastaurin] + COc1ccc(COc2ccc(Cc3cnc(N)nc3N)cc2OC)cc1 [GW2580] (first compound 0.8 µM, partner dose 1 µM), with 58.3%.

Regarding `Cn1cc(C2=C(c3cn(C4CCN(Cc5ccccn5)CC4)c4ccccc34)C(=O)NC2=O)c2ccccc21` [Enzastaurin] + c1cc(-c2cnn3cc(-c4ccc(OCCN5CCCCC5)cc4)cnc23)ccn1 [Dorsomorphin] (first compound 0.8 µM, partner dose 0.4 µM), the “cleaved PARP positive nuclei fraction” value amounted to 57.4%. Turning to `C[As](C)SC[C@H](NC(=O)CC[C@H](N)C(=O)O)C(=O)NCC(=O)O` [Darinaparsin] + C=CCn1c(=O)c2cnc(Nc3ccc(N4CCN(C)CC4)cc3)nc2n1-c1cccc(C(C)(C)O)n1 [MK1775] (first compound 0.4 µM, partner dose 0.02 µM), the “cleaved PARP positive nuclei fraction” value was found to be 152%. `Cn1cc(C2=C(c3cn(C4CCN(Cc5ccccn5)CC4)c4ccccc34)C(=O)NC2=O)c2ccccc21` [Enzastaurin] + OCCn1cc(-c2cnc3nnn(Cc4ccc5ncccc5c4)c3n2)cn1 [PF04217903] (first compound 0.8 µM, partner dose 1 µM): the “cleaved PARP positive nuclei fraction” value amounted to 95.4%. For the compound `N.N.[Cl][Pt][Cl]` [cisplatin] + CN(NC(=O)CC(=O)NN(C)C(=S)c1ccccc1)C(=S)c1ccccc1 [STA4783] (first compound 1.6 µM, partner dose 0.006 µM), the “cleaved PARP positive nuclei fraction” value was 99.8%. Regarding `C=C(c1ccc(C(=O)O)cc1)c1cc2c(cc1C)C(C)(C)CCC2(C)C` [Bexarotene] + O=C(Oc1ccc([N+](=O)[O-])cc1)N1CCC(C(O)(c2ccc3c(c2)OCO3)c2ccc3c(c2)OCO3)CC1 [JZL184] (first compound 2 µM, partner dose 1 µM), the “cleaved PARP positive nuclei fraction” value was found to be 232%. Consider `Cn1sc(=O)n(Cc2ccccc2)c1=O` + O=C(Oc1ccc([N+](=O)[O-])cc1)N1CCC(C(O)(c2ccc3c(c2)OCO3)c2ccc3c(c2)OCO3)CC1 [JZL184] (first compound 0.4 µM, partner dose 1 µM), for which the “cleaved PARP positive nuclei fraction” value was determined as 117%. As for `C[As](C)SC[C@H](NC(=O)CC[C@H](N)C(=O)O)C(=O)NCC(=O)O` [Darinaparsin] + COc1cc(Nc2ncc(F)c(Nc3ccc4c(n3)NC(=O)C(C)(C)O4)n2)cc(OC)c1OC [Tamatinib] (first compound 0.4 µM, partner dose 0.4 µM), the “cleaved PARP positive nuclei fraction” value is 77.9%. Then `CNC(=O)c1cc(Oc2ccc(NC(=O)Nc3ccc(Cl)c(C(F)(F)F)c3)cc2)ccn1` [sorafenib] + Cc1cc(SCc2sc(-c3ccc(C(F)(F)F)c(F)c3)nc2C)ccc1OCC(=O)O [GW0742] (first compound 0.4 µM, partner dose 2 µM), with 140%; and `Cn1cc(C2=C(c3cn(C4CCN(Cc5ccccn5)CC4)c4ccccc34)C(=O)NC2=O)c2ccccc21` [Enzastaurin] + COC(=O)c1sccc1S(=O)(=O)Nc1ccc(Nc2ccccc2)cc1OC [GSK0660] (first compound 0.8 µM, partner dose 1 µM), with 82.7%. Consider `COc1cc([C@@H]2c3cc4c(cc3[C@@H](O[C@@H]3O[C@@H]5CO[C@@H](C)O[C@H]5[C@H](O)[C@H]3O)[C@H]3COC(=O)[C@H]23)OCO4)cc(OC)c1O` [etoposide] + C/C(O)=C(\C#N)C(=O)Nc1cc(Br)ccc1Br [LFM-A13] (first compound 0.02 µM, partner dose 2 µM), for which the “cleaved PARP positive nuclei fraction” value was 71.5%. Then `Cn1cnc2c(F)c(Nc3ccc(Br)cc3Cl)c(C(=O)NOCCO)cc21` [selumetinib] + O=C(Oc1ccc([N+](=O)[O-])cc1)N1CCC(C(O)(c2ccc3c(c2)OCO3)c2ccc3c(c2)OCO3)CC1 [JZL184] (first compound 0.015 µM, partner dose 1 µM), with 142%; and `Nc1ncn([C@H]2C[C@H](O)[C@@H](CO)O2)c(=O)n1` [decitabine] + O=C(Oc1ccc([N+](=O)[O-])cc1)N1CCC(C(O)(c2ccc3c(c2)OCO3)c2ccc3c(c2)OCO3)CC1 [JZL184] (first compound 0.1 µM, partner dose 1 µM), with 47.5%; and `C[As](C)SC[C@H](NC(=O)CC[C@H](N)C(=O)O)C(=O)NCC(=O)O` [Darinaparsin] + O=C(O)c1ccc(-c2c[nH]c3ncc(-c4ccccc4)cc23)cc1C1CCCC1 [GSK650394] (first compound 0.4 µM, partner dose 0.16 µM), with 54.5%. On to `O=C(Nc1cc(C(F)(F)F)cc(C(F)(F)F)c1)c1cc(Cl)ccc1O` + O=C(Oc1ccc([N+](=O)[O-])cc1)N1CCC(C(O)(c2ccc3c(c2)OCO3)c2ccc3c(c2)OCO3)CC1 [JZL184] (first compound 0.016 µM, partner dose 1 µM), for which the “cleaved PARP positive nuclei fraction” value amounted to 77.3%. Consider `Cn1cc(C2=C(c3cn(C4CCN(Cc5ccccn5)CC4)c4ccccc34)C(=O)NC2=O)c2ccccc21` [Enzastaurin] + O=C(Oc1ccc([N+](=O)[O-])cc1)N1CCC(C(O)(c2ccc3c(c2)OCO3)c2ccc3c(c2)OCO3)CC1 [JZL184] (first compound 0.8 µM, partner dose 1 µM), for which the “cleaved PARP positive nuclei fraction” value stood at 126%.

Values taken from the supplement of paper PMC4604168 (melanoma cell lines).
